From PubChem BioAssay AID504467 (National Center for Advancing Translational Sciences (NCATS), 2011)
In all, about 330,000 compounds went through this assay and about 7,700 (2.3%) were called active. The shares of active, inactive and inconclusive entries below differ from those in the screen. The call rests on the fitted dose curve; in most records, active means well fitted inhibition curve with a large enough effect; inconclusive means small, poorly fitted or top-dose-only effect, or effect the other way; inactive means flat fitted curve, though single readings scatter. Potencies beside an inconclusive call are fits to weak or partial responses and may not hold up.
Potency means the concentration at half of the fitted maximal effect.

Test: qHTS screen for small molecules that inhibit ELG1-dependent DNA repair in human embryonic kidney (HEK293T) cells expressing luciferase-tagged ELG1; further: nearly all actives have a fitted effect of over 55% in size
Details: HEK293T ELG1-luciferase reporter, luminescence, 16 h, DNA damage induced by 5-fluorouridine; series mostly up to 46.1 µM
Outline: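 DMSO vehicle served as the neutral condition. Each well held 2,000 cells given 5-fluorouridine plus compound; after 16 hr at 37 °C/5% CO2, ONE-Glo was added and luciferase measured 30 min later.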
With `CCOC(=O)Cc1csc(NC(=O)CSc2ncnc3c2cnn3-c2ccccc2Cl)n1` the Potency was inconclusive: 18.4 µM [inhibitor, partial curve, poor fit]. With `COc1ccc(-n2cnc3cc(NCc4ccco4)ccc32)cc1` the Potency was inconclusive: 13 µM [activator, partial curve]. For `CNC(=O)c1ccc(NC(=O)CC2SC(N3CCCC3)=NC2=O)cc1` (stereo not drawn), the Potency was “inactive”. With `CNCc1c(OCc2ccc(F)cc2)ccc2ccccc12` the Potency was inconclusive: 8.2 µM [inhibitor, partial curve]. For `CC(C)=CC(=O)Nc1ccc(S(=O)(=O)Nc2ccccn2)cc1`, the Potency was “inactive”. For `Fc1ccc(NC(=S)NCCN2CCOCC2)cc1`, the Potency was “inactive”. For `Cc1cc(NC(=O)c2cc(-c3ccccn3)nc3ccccc23)no1`, the Potency was inconclusive: 25.9 µM [inhibitor, single point]. For `Cc1ccc(N2C(=O)C(NC(=O)c3c(F)cccc3F)(C(F)(F)F)C3=C2CC(C)(C)CC3=O)cc1` (stereo not drawn), the Potency was inconclusive: 0.58 µM [inhibitor, partial curve, poor fit]. For `CCCN1CCC(N2CCN(c3ccccc3OC)CC2)CC1`, the Potency was inconclusive: 0.58 µM [inhibitor, single point]. In the case of `CN1CCN(S(=O)(=O)c2ccc3ccccc3c2)CC1`, the Potency is reported as “inactive”. In the case of `CC(=O)c1sc(NC(=O)c2ccccc2F)nc1-c1ccccc1`, the Potency is reported as inconclusive: 9.2 µM [activator, partial curve]. For `COc1ccccc1CC(=O)Nc1ccc2c(c1)CCC2`, the Potency was inconclusive: 16.4 µM [activator, partial curve, poor fit]. In the case of `CN(C)CCCN(C(=O)c1ccc(S(=O)(=O)N2CCCCCC2)cc1)c1nc2ccc(Br)cc2s1`, the Potency is reported as inconclusive: 5.17 µM [inhibitor, partial curve, poor fit]. In the case of `CN(C)Cc1ccc(F)cc1Sc1cc(Cl)ccc1Cl`, the Potency is reported as inconclusive: 1.16 µM [inhibitor, full curve, poor fit]. In the case of `Cc1cccc(C)c1NC(=O)CN(C)CC(=O)Nc1ccc(F)c(Cl)c1`, the Potency is reported as inconclusive: 18.3 µM [inhibitor, single point]. With `CCn1c(NC(=O)c2ccccc2)nc2ccccc21` the Potency was inconclusive: 18.3 µM [activator, partial curve, poor fit]. For `CCOC(=O)c1sc2nc(CC(=O)OC)nc(NCCN3CCOCC3)c2c1C`, the Potency was inconclusive: 18.4 µM [inhibitor, partial curve, poor fit]. For `O=C(O)c1ccccc1C(=O)NNc1cccc(Cl)n1`, the Potency was inconclusive: 20.6 µM [activator, partial curve]. With `CCO[C@@H]1OC(C(=O)NCc2ccccc2)=C[C@H](C2CC2)[C@H]1CCCO` the Potency was inconclusive: 9.2 µM [inhibitor, partial curve]. For `COc1ccc(NC(=O)CS(=O)c2ccccc2Cl)cc1` (stereo not drawn), the Potency was “inactive”. For `O=C(NCCCn1ccnc1)C(=O)NCC1OCCN1S(=O)(=O)c1ccc(Br)cc1` (stereo not drawn), the Potency was inconclusive: 29.1 µM [inhibitor, single point]. In the case of `COc1ccc(-c2nnc(SCc3ccccc3F)o2)cc1OC`, the Potency is reported as inconclusive: 7.31 µM [activator, partial curve]. For `C=C(C)CSc1nnc(-c2ccc(C)cc2)n1N`, the Potency was inconclusive: 16.4 µM [activator, partial curve]. For `COc1ccccc1C(=O)NCCn1cc(SCC(=O)NCC2CCCO2)c2ccccc21` (stereo not drawn), the Potency was inconclusive: 29.1 µM [inhibitor, partial curve, poor fit]. In the case of `O=C1c2ccccc2[C@@H]2C[C@@H](O)[C@H](Nc3ccccc3Cl)CCN12`, the Potency is reported as “inactive”. In the case of `COC(=O)[C@@H]1C[C@@]2(O)[C@H](O)[C@H](O)[C@H](O)C[C@H]2N1CC(c1ccccc1)c1ccccc1`, the Potency is reported as inconclusive: 18.3 µM [activator, partial curve, poor fit]. With `Cc1ccc(C)c(N2CCN(C(=O)CCS(=O)(=O)c3ccc4c(c3)NC(=O)CO4)CC2)c1` the Potency was inconclusive: 23.1 µM [inhibitor, single point]. With `O=C(NNC(=O)c1n[nH]c(=O)c2ccccc12)c1ccc(Br)cc1` the Potency was “inactive”. For `O=C(Nc1cccc(-c2nc3ncccc3o2)c1)c1ccccc1`, the Potency was “inactive”. For `O=C(/C=C/Nc1ccc(F)cc1)c1ccc(Br)cc1`, the Potency was inconclusive: 5.17 µM [activator, partial curve]. In the case of `CCOC(=O)c1cnc(SCc2nc(N)nc(Nc3ccc(F)cc3)n2)nc1N`, the Potency is reported as inconclusive: 16.4 µM [inhibitor, partial curve, poor fit]. For `CCOC(=O)c1csc(NC(=O)CN2CCN(C)CC2)n1`, the Potency was inconclusive: 29.1 µM [activator, partial curve, poor fit]. In the case of `O=C(CSc1ccccc1)Nc1ccc(N2CCOCC2)c(F)c1`, the Potency is reported as inconclusive: 11.6 µM [activator, partial curve]. For `O=C(c1ccc([N+](=O)[O-])cc1)N1CCc2ccccc2C1`, the Potency was “inactive”. For `CC(C)Nc1nnc(SCC(=O)Nc2ccc(F)cc2)s1`, the Potency was inconclusive: 11.2 µM [activator, partial curve, poor fit]. With `CC(=O)c1cc2c(cc1NC(=O)Cc1ccsc1)OCO2` the Potency was “inactive”. For `CC(C)CCNC(=O)COc1ccc(N(C)S(=O)(=O)c2ccc(F)cc2)cc1`, the Potency was inconclusive: 8.2 µM [inhibitor, partial curve, poor fit]. In the case of `CN(C)S(=O)(=O)c1cccc(NC(=S)N/N=C/C(c2ccccc2)c2ccccc2)c1`, the Potency is reported as “inactive”. With `CCOCCCn1c(SCC(=O)N(C)C2CCS(=O)(=O)C2)nc2ccccc2c1=O` (stereo not drawn) the Potency was inconclusive: 0.651 µM [inhibitor, partial curve, poor fit]. In the case of `Cc1c(N=Cc2ccc(Cl)o2)c(=O)n(-c2ccccc2)n1C`, the Potency is reported as inconclusive: 0.231 µM [inhibitor, single point]. For `CC(C)C[C@H](CO)N(Cc1ccccc1)S(=O)(=O)N(Cc1ccccc1)[C@@H](CO)CC(C)C`, the Potency was inconclusive: 29.1 µM [inhibitor, single point]. In the case of `CCOC(=O)c1ccc(NC(=O)N2CCc3ccccc3C2)cc1`, the Potency is reported as inconclusive: 20.6 µM [activator, partial curve, poor fit]. In the case of `CCN1CCN(c2nc3ccccc3nc2NS(=O)(=O)c2ccc(NC(C)=O)cc2)CC1`, the Potency is reported as inconclusive: 23.1 µM [activator, partial curve, poor fit]. With `COC(=O)c1cc(C(=O)Nc2nnc(CC(C)(C)C)s2)cc([N+](=O)[O-])c1` the Potency was “inactive”. In the case of `O=c1cc(-c2ccncc2)oc2ccccc12`, the Potency is reported as active: 9.2 µM. In the case of `O=C(O)c1cccc(N/N=C/C2=C(Cl)c3cc(Cl)ccc3SC2)c1`, the Potency is reported as inconclusive: 0.651 µM [activator, full curve]. With `O=c1c2cccnc2[nH]c(=S)n1CCC1=CCCCC1` the Potency was “inactive”. In the case of `CCN(CC)S(=O)(=O)c1ccc(NC(=O)c2c(-c3ccccc3)noc2C)cc1`, the Potency is reported as inconclusive: 29.1 µM [inhibitor, single point]. For `COc1ccc(C(=O)/C=C/c2ccc(OC)cc2OC)c(O)c1`, the Potency was inconclusive: 18.3 µM [activator, partial curve]. In the case of `CC(=O)Oc1ccc(N(c2ccccc2)S(=O)(=O)c2ccc(C)cc2)cc1`, the Potency is reported as inconclusive: 25.9 µM [inhibitor, partial curve, poor fit]. For `CCOc1ccc(S(=O)(=O)NCc2cccs2)cc1`, the Potency was “inactive”. With `O=C(Nc1sc2c(c1C(=O)O)CCCC2)c1ccc(Cl)cc1` the Potency was inconclusive: 29.1 µM [activator, single point]. For `COc1cc2c(-c3ccc4[nH]ccc4c3)c(-c3ccc(C#N)cc3)oc(=O)c2cc1OC`, the Potency was inconclusive: 3.66 µM [inhibitor, partial curve, poor fit]. For `On1c2c(c3c4nonc4ccc31)CCCC2`, the Potency was active: 13 µM. With `COc1ccc(NC(=O)COC(=O)c2ccc(C)c(S(=O)(=O)N3CCCCC3)c2)cc1` the Potency was inconclusive: 23.1 µM [inhibitor, single point]. For `Nc1[nH]nc2c1NN(c1ccc(Cl)cc1Cl)N2`, the Potency was inconclusive: 10.3 µM [activator, partial curve]. For `NS(=O)(=O)c1ccc2nc(NC(=O)c3ccc(Br)o3)sc2c1`, the Potency was inconclusive: 13 µM [activator, partial curve]. In the case of `CCOC(=O)c1c(-c2ccccc2)nc2cc(C)ccn12`, the Potency is reported as inconclusive: 7.31 µM [activator, partial curve]. In the case of `Cc1ccc(CNC(=O)Nc2cccc(C)c2)cc1`, the Potency is reported as inconclusive: 25.9 µM [activator, partial curve]. In the case of `CN(C)C(=O)CSc1nnc(C23CC4CC(CC(C4)C2)C3)o1`, the Potency is reported as inconclusive: 5.8 µM [activator, partial curve]. With `CC1CC(C)(C)NC(=S)N1CCC(=O)N1CCN(c2ccccc2)CC1` (stereo not drawn) the Potency was “inactive”. In the case of `O=C(COc1ccccc1Cc1ccccc1)Nc1cccc(S(=O)(=O)N2CCOCC2)c1`, the Potency is reported as inconclusive: 23.1 µM [inhibitor, single point]. In the case of `CCOC(=O)N1CCC(NC(=O)c2cnn3c(C(F)(F)F)cc(-c4cccc(OC)c4)nc23)CC1`, the Potency is reported as “inactive”. For `O=C(N/N=C/c1cccc([N+](=O)[O-])c1)c1cc2ccccc2o1`, the Potency was “inactive”. For `O=C(N/N=C/c1cc([N+](=O)[O-])ccc1O)Nc1ccccc1`, the Potency was inconclusive: 18.3 µM [inhibitor, partial curve]. With `COc1ccc2c(c1)OC1=C(C(=O)CCC1)C2C1=C(O)CCCC1=O` (stereo not drawn) the Potency was “inactive”. With `COCC(C)NC(=O)/C=C/c1ccc(OC)cc1` (stereo not drawn) the Potency was inconclusive: 18.3 µM [activator, single point]. With `COc1ccc(S(=O)(=O)N(C)c2ccc(C(=O)NCc3ccco3)cc2)cc1OC` the Potency was “inactive”.
